Experimental data from PubChem BioAssay AID624297 (National Center for Advancing Translational Sciences (NCATS), 2012).
Out of some 340,000 compounds screened, about 6,200 (1.8%) were called active. The shares of active, inactive and inconclusive entries below differ from those in the screen. The call rests on the fitted dose curve; in most records, active means well fitted activation curve with a large enough effect; inconclusive means small, poorly fitted or top-dose-only effect; inactive means no such curve, though single readings can be large or run the other way. A potency beside an inconclusive call is a rough fit, not a confirmed value.

assay: A quantitative high throughput screen for small molecules that induce DNA re-replication in SW480 colon adenocarcinoma cells.; further: nearly all actives have a fitted effect of over 55% in size; on re-replication activation: % of control where 0% means no effect; settings: Hoechst DNA content imaging, 48 h; re-replication activation: at 46.1 µM (top of the series) unless noted
Summary of the method: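 SW480 cells exposed to compounds for 48 hr at 37 C, 5% CO2, then Hoechst-stained 40 min. Nuclear DNA content imaged by fluorescence scanning (405 nm excitation, 500-530 nm emission); re-replication scored as increased high-intensity nuclei.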
Potency means the concentration at half of the fitted maximal effect.

Structure (SMILES)	Potency	re-replication activation
CS(=O)(=O)N(CC(N)=O)c1ccc2c(c1)OCO2	inactive	–
O=S(=O)(CC(CN1CCCCC1)N1CCCCC1)c1ccc2ccccc2c1 (stereo unspecified)	inconclusive: 2.91 µM [activator, full curve, poor fit]	–
CC(C)(C)CC(C)(C)NCC(O)COc1c(F)cc(Br)cc1F (stereo unspecified)	inconclusive: 29.1 µM [activator, single point]	–
CN(CC(=O)OCC(=O)NC1CCCC1)S(=O)(=O)c1ccc(Cl)cc1	inconclusive: 29.1 µM [activator, single point]	–
O=C(NCCCN1CCN(c2cccc(Cl)c2)CC1)C1(S(=O)(=O)c2ccc(Cl)cc2)CC1	inconclusive: 29.1 µM [activator, single point]	–
Cc1ccccc1C(=O)Oc1cc(N)n(S(C)(=O)=O)n1	inconclusive: 16.4 µM [activator, single point]	–
CCN(C(=O)c1cccs1)c1nc(-c2ccc(OC)cc2)cs1	inconclusive: 29.1 µM [activator, single point]	–
COc1ccccc1NC(=O)CSc1nnc(COc2ccc(Cl)cc2)n1Cc1ccco1	inactive	–
CN(C)c1cccc(C(=O)OCc2cc(=O)oc3cc(O)ccc23)c1	inconclusive: 29.1 µM [activator, single point]	–
Cc1ccc2c(Cl)c(C(=O)Nc3cccnc3)sc2c1	inconclusive: 11.6 µM [activator, partial curve, poor fit]	–
CC(C)OC(=O)/C(=C/c1ccco1)c1ccccc1	inconclusive: 4.61 µM [activator, full curve, poor fit]	–
Cc1cc2c(c(=O)o1)C(c1ccc([N+](=O)[O-])o1)C(C#N)=C(N)O2 (stereo unspecified)	inactive	–
CCC(=O)c1cn(CC(=O)Nc2c(C)cccc2C)c2ccccc12	inconclusive: 0.103 µM [activator, full curve, poor fit]	–
CN1C(=O)C(C)(C)N(C(=O)c2cccc([N+](=O)[O-])c2)c2ccccc21	inactive	–
Cc1cccc(NC(=O)CCS(=O)(=O)c2cc3c(cc2Cl)NC(=O)CO3)c1	inactive	–
CN(C)c1ccc(/C=C(\Cl)c2nc3ccccc3s2)cc1	inconclusive: 29.1 µM [activator, single point]	–
Cc1ccc2c(c1)[C@H]1[C@H](CO2)[C@H](c2ccccc2)[C@]2(C)C(=O)Nc3cc(F)ccc3C(=O)N12	inconclusive: 16.4 µM [activator, partial curve, poor fit]	–
CCCCCCCNC(=O)C1(CC2CC(c3cccc(Br)c3)=NO2)CCN(C(=O)c2cc(OCC)c(OCC)c(OCC)c2)CC1 (stereo unspecified)	inconclusive: 2.31 µM [activator, partial curve, poor fit]	–
CCN(CC(=O)NCc1ccc(Cl)cc1)C(=O)CSc1cc(C)ccc1C	inactive	–
O=C(C[n+]1ccccc1)N/N=C/c1cc(Br)cc(Br)c1O	inconclusive: 32.6 µM [activator, partial curve, poor fit]	–
O=C(Nc1ccc2c(c1)OCCO2)C1CC(c2ccccc2Cl)=NO1 (stereo unspecified)	inactive	–
N#C/C(=C/c1ccc(Br)s1)C(=O)NCCc1c[nH]c2ccccc12	inconclusive: 20.6 µM [activator, partial curve, poor fit]	–
CCCCS(=O)c1c(O)c2ccccc2[nH]c1=O (stereo unspecified)	inconclusive: 0.517 µM [activator, partial curve, poor fit]	–
Fc1ccccc1COc1ccc(Br)cc1CNCc1ccncc1	inconclusive: 25.9 µM [activator, partial curve, poor fit]	–

For reference, some entries already given:
Structure (SMILES)	Potency	re-replication activation
O=C(Nc1ccc2c(c1)OCCO2)C1CC(c2ccccc2Cl)=NO1 (stereo unspecified)	inactive	–
N#C/C(=C/c1ccc(Br)s1)C(=O)NCCc1c[nH]c2ccccc12	inconclusive: 20.6 µM [activator, partial curve, poor fit]	–
CCCCS(=O)c1c(O)c2ccccc2[nH]c1=O (stereo unspecified)	inconclusive: 0.517 µM [activator, partial curve, poor fit]	–
Fc1ccccc1COc1ccc(Br)cc1CNCc1ccncc1	inconclusive: 25.9 µM [activator, partial curve, poor fit]	–

More compounds:

Structure (SMILES)	Potency	re-replication activation
O=C(Cc1cccs1)N[C@@H]1c2ccccc2CC[C@H]1OCc1ccccc1	inconclusive: 29.1 µM [activator, single point]	–
COc1ccc(S(N)(=O)=O)cc1C(=O)OCC(=O)N1CC(=O)Nc2ccccc21	inactive	–
CCCCCCCn1ccc(=N)cc1	inconclusive: 20.6 µM [activator, partial curve, poor fit]	–
CC(C)C[C@@H](CO)N(Cc1ccccc1)S(=O)(=O)N(Cc1ccccc1)[C@H](CO)CC(C)C	inactive	–
O=C(/C=C/c1c(Cl)nc2ccccn12)Nc1ccc(F)cc1	inactive	–
O=C(Nc1ccc(S(=O)(=O)N2CCOCC2)cc1)c1ccc([N+](=O)[O-])cc1Cl	inconclusive: 0.58 µM [activator, full curve, poor fit]	–
COc1ccc2sc(-c3ccc(S(C)(=O)=O)cc3)c(C#Cc3cncn3C)c2c1	active: 5.8 µM	–
CN1CCN(NC(=O)c2cccc(C(F)(F)F)c2)CC1	active: 5.8 µM	–
COc1cc(CN(CCc2c(C)[nH]c3ccc(C)cc23)C(=S)NC(C)(C)C)cc(OC)c1OC	inconclusive: 29.1 µM [activator, single point]	–
Cc1ccccc1OCC(=O)Nc1ccc(S(=O)(=O)Nc2onc(C)c2C)cc1	inconclusive: 29.1 µM [activator, single point]	–
CC(C)c1ccc(C(C)NCCS(=O)(=O)c2ccc(Br)cc2)cc1 (stereo unspecified)	inconclusive: 29.1 µM [activator, single point]	–
CCC(C(=O)OCC(=O)N(CC)c1c(N)n(Cc2ccccc2)c(=O)[nH]c1=O)c1ccccc1 (stereo unspecified)	inactive	–
O=C(CCCCl)Oc1ccc2cc(-c3ccc4ccccc4n3)c(=O)oc2c1	active: 2.06 µM	–
CCOC(=O)c1c(C)c(-c2ccccc2)n(CC(=O)NCCCN(CC)CC)c1C	inconclusive: 2.31 µM [activator, full curve, poor fit]	–
O=Nc1c(O)n(Cc2c(Cl)cccc2Cl)c2ccccc12	inconclusive: 10.3 µM [activator, single point]	–
N#CC(C#N)=C1C(=O)N(CCN2CCOCC2)c2ccccc21	inconclusive: 29.1 µM [activator, single point]	–
CCOc1ccccc1NC(=O)c1cc(-c2ccccn2)nc2ccccc12	inconclusive: 18.4 µM [activator, single point]	–
COc1cc(OC)cc(-c2nc3ccccc3c(=O)n2OC(=O)c2ccc(Br)cc2)c1	inconclusive: 14.6 µM [activator, single point]	–
Cc1ccc(Oc2ncccc2C(=O)NCC(=O)O)cc1	inactive	–
CN(C)c1ccc(/C=C2\SC(N3CCCCC3)=NC2=O)cc1	inactive	–
CC(c1n[nH]c(=S)n1Cc1ccccc1)N(C)C (stereo unspecified)	inactive	–
CCn1c2ccccc2c2cc(NC(=O)c3cccc([N+](=O)[O-])c3C)ccc21	active: 10.3 µM	–
CCc1cccc(NC(=O)Cc2ccc(OC)c(OC)c2)c1	inactive	–
O=S(=O)(NCCN1CCCC1)c1ccc(Br)cc1	inconclusive: 0.461 µM [activator, full curve, poor fit]	–

Structure (SMILES)	Potency	re-replication activation
Cc1ccccc1S(=O)(=O)c1c(C)cc(C)n(C)c1=O	inconclusive: 0.0046 µM [activator, full curve, poor fit]	–
CCN1CCN(c2nc3sc4c(c3c(=O)n2-c2ccc(OC)cc2)CCCCC4)CC1	inconclusive: 18.4 µM [activator, single point]	–
CS(=O)(=NS(=O)(=O)c1ccc(Cl)cc1)c1ccccc1 (stereo unspecified)	inconclusive: 2.59 µM [activator, partial curve, poor fit]	–
Cc1cc(-c2ccc(S(=O)(=O)N3CCN(c4ccc(F)cc4)CC3)s2)on1	inconclusive: 2.06 µM [activator, partial curve]	–
N#Cc1ccc(CC(=O)c2ccccc2)[nH]c1=O	inactive	–
CCn1cc(C2=NC(CC(C)C)CO2)c2ccccc21 (stereo unspecified)	inconclusive: 2.31 µM [activator, full curve, poor fit]	–
Cc1ccc(COC(=O)c2cc(S(=O)(=O)N3CCOCC3)ccc2C)cc1	inactive	–
COc1ccc(C(NC(C)=O)c2ccc3cccnc3c2O)c(OC)c1 (stereo unspecified)	active: 2.91 µM	–
Oc1ccccc1-c1nc(NCc2ccccc2)c2ccccc2n1	inactive	–
O=C1NC(c2cccc(Cl)c2)Nc2ccccc21 (stereo unspecified)	inconclusive: 25.9 µM [activator, single point]	–
C[C@]12c3[nH]c4ccc(Cl)cc4c3CCN1C(=O)[C@@H](CC(=O)NCCN1CCOCC1)C[C@@H]2C(=O)N1CCOCC1	inconclusive: 29.1 µM [activator, single point]	–
c1cnc(Sc2ccc3nnnn3n2)nc1	inconclusive: 18.4 µM [activator, single point]	–
O=C(CCSC1=NCCCN1)c1ccc(F)cc1	inconclusive: 29.1 µM [activator, single point]	–
Cc1ccn2c(=O)nc(SCC(=O)NCc3ccccc3Cl)nc2c1	inactive	–
O=C(CCCN=C1NS(=O)(=O)c2ccccc21)OCc1ccccc1	inactive	–
Cc1ccc(C)c2c1cc(C)c1nnc(SCC(=O)Nc3nc4c(s3)CCCC4)n12	inactive	–
COc1cccc(Oc2ccc(N/C=C/C(=O)C(C)(C)C)cc2)c1	inconclusive: 0.231 µM [activator, full curve, poor fit]	–
Cn1c(SCc2ccc(Br)cc2)nc2c(c1=O)SCC2	inactive	–
CCC(=O)N1CCc2cc(S(=O)(=O)NCCN3CCC(C)CC3)ccc21	inconclusive: 18.4 µM [activator, single point]	–
Cc1cccc(C)c1OCc1cc(C(=O)NC2CCC2)no1	–	inconclusive: 31.5% [activator]
Cc1ccc(S(=O)(=O)c2c(C)cc(C)[nH]c2=O)c(C)c1	inactive	–
CC/C(C)=N/N1C(=O)c2ccccc2NC1(C)CC (stereo unspecified)	inconclusive: 2.59 µM [activator, full curve, poor fit]	–
COc1ccc2[nH]c(C)c(CCNC(=S)Nc3cc(C)cc(C)c3)c2c1	inconclusive: 8.2 µM [activator, partial curve, poor fit]	–
